Data reported in paper doi:10.1101/542795.
No constants are given. Whether binding was seen depends on the method and setting. Binding seen in cells or lysates may run through a third protein. Some binding calls cover weakened binding; strength is not graded here. Tags and fused reporters may be left off the sequences shown.

Target: HtsRC::V5::APEX1 (Drosophila melanogaster) (UniProt Q02645)
Experiment: proximity ligation

binding: binds
B1: HtsRC::V5::APEX1 (protein, UniProt Q02645 659-1156)
chain: ALVSQLAQKYAFLYSPGQYMYACMKMAPLMHKVYVIHKVEPVSKHNYPPVNDGNMSIHHNESGAGFMAQESSVISSTPVRNALASVSLPEERNHSILGLSSTPYRTISHFGFNCPLITSPTILLHPEHRSIWQRVAEQREKVVSFIDLTTLSLDNRKLLNVVTSTHPTQCQSQSQSFISEKHIQLEVTPPKRKQRVYSATISSGLDDSLDELDSLMSGLAINMPRSREQDSGLYRSYTFLPSNHALPKDTDANNRDQTDRERPEAEQEESFHCAGDSGIGDSTGRRPRLATTSNDSSIQEAEAYTQGKHVKLTLSSSPTPTATQSPATIEILINVSLRNAECVQTVQTHEQEFRAKLERVIDEEIHYISQQLAFKQRQAELHEQQTTSRAPIATPSFTTMHPPAPASSSSMVHRSNSAPELCHTYSYVAVGDLSTKQDQASPQLPAEGEPLNDILSSLEKELERLLNSVVTAHMLHNKAIIHECRARFSQLADGIVSS
